This assay addresses ATR with deletion of the N-terminal region. Put plainly: co-IP; exogenous; proteins co-expressed from plasmids in HEK293T cells.

The record followed here is article PMC10940101.

Results are given in words; binding and its absence hold for the method and conditions named. In cells and extracts the contact can be indirect. Sequences can lack the tags named with a protein.

B1: Myc-tagged TRIM56 (exogenous, WT) (protein, UniProt Q9BRZ2 1-755)
chain: MVSHGSSPSLLEALSSDFLACKICLEQLRAPKTLPCLHTYCQDCLAQLADGGRVRCPECRETVPVPPEGVASFKTNFFVNGLLDLVKARACGDLRAGKPACALCPLVGGTSTGGPATARCLDCADDLCQACADGHRCTRQTHTHRVVDLVGYRAGWYDEEARERQAAQCPQHPGEALRFLCQPCSQLLCRECRLDPHLDHPCLPLAEAVRARRPGLEGLLAGVDNNLVELEAARRVEKEALARLREQAARVGTQVEEAAEGVLRALLAQKQEVLGQLRAHVEAAEEAARERLAELEGREQVARAAAAFARRVLSLGREAEILSLEGAIAQRLRQLQGCPWAPGPAPCLLPQLELHPGLLDKNCHLLRLSFEEQQPQKDGGKDGAGTQGGEESQSRREDEPKTERQGGVQPQAGDGAQTPKEEKAQTTREEGAQTLEEDRAQTPHEDGGPQPHRGGRPNKKKKFKGRLKSISREPSPALGPNLDGSGLLPRPIFYCSFPTRMPGDKRSPRITGLCPFGPREILVADEQNRALKRFSLNGDYKGTVPVPEGCSPCSVAALQSAVAFSASARLYLINPNGEVQWRRALSLSQASHAVAALPSGDRVAVSVAGHVEVYNMEGSLATRFIPGGKASRGLRALVFLTTSPQGHFVGSDWQQNSVVICDGLGQVVGEYKGPGLHGCQPGSVSVDKKGYIFLTLREVNKVVILDPKGSLLGDFLTAYHGLEKPRVTTMVDGRYLVVSLSNGTIHIFRVRSPDS
B1: the binding entry was “no binding”.
